{"source": "PubChem BioAssay AID504467", "about": "(National Center for Advancing Translational Sciences (NCATS), 2011)", "note": "The campaign covered roughly 330,000 compounds. About 7,700 (2.3%) were called active. The shares of active, inactive and inconclusive entries below differ from those in the screen. The call rests on the fitted dose curve; in most records, active means well fitted inhibition curve with a large enough effect; inconclusive means small, poorly fitted or top-dose-only effect, or effect the other way; inactive means flat fitted curve, though single readings scatter. Where the call is inconclusive, the potency comes from a doubtful curve fit. Potency means the concentration at half of the fitted maximal effect."}
{"test": "qHTS screen for small molecules that inhibit ELG1-dependent DNA repair in human embryonic kidney (HEK293T) cells expressing luciferase-tagged ELG1; further: nearly all actives have a fitted effect of over 55% in size", "settings": "HEK293T ELG1-luciferase reporter, luminescence, 16 h, DNA damage induced by 5-fluorouridine; series mostly up to 46.1 µM", "summary_of_the_method": "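Reporter activity after DNA damage by 5-fluorouridine is monitored. Compound-treated cells incubate 16 hr at 37 °C, then ONE-Glo is added for 30 min before luminescence reading.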"}
{"smiles": "COc1cc2c(cc1OC)C(c1ccccc1)CC2=O", "note": "(centres undefined)", "Potency": "inconclusive: 0.366 µM [activator, partial curve, poor fit]"}
{"smiles": "Cc1ccccc1NC(=O)COC(=O)C1C2CC3OC(=O)C1C3C2", "note": "(centres undefined)", "Potency": "inactive"}
{"smiles": "COc1cc2c(cc1OC)C(C)N(C(=O)c1cc3n(n1)C(C(F)(F)F)CC(c1ccco1)N3)CC2", "note": "(centres undefined)", "Potency": "inconclusive: 25.9 µM [inhibitor, single point]"}
{"smiles": "CCc1ccc(NC(=O)c2sc3nc4n(c(=O)c3c2C)CCC4)cc1", "Potency": "inconclusive: 16.4 µM [activator, single point]"}
{"smiles": "COc1ccccc1N1CCN(CCN(C(=O)C2CCCCC2)c2ccccn2)CC1", "Potency": "inconclusive: 35.5 µM [inhibitor, single point]"}
{"smiles": "CCCCc1nnc(NC(=O)c2oc3ccccc3c2C)s1", "Potency": "inconclusive: 13 µM [activator, single point]"}
{"smiles": "O=C(C1CCN(S(=O)(=O)c2cccc3nsnc23)CC1)N1CCn2c1nc1ccccc12", "Potency": "active: 6.51 µM"}
{"smiles": "CCc1cccc(NC(=O)C2CC2c2ccccc2)c1", "note": "(centres undefined)", "Potency": "inconclusive: 25.9 µM [inhibitor, single point]"}
{"smiles": "CCOc1ccccc1NC(=O)C1CCC(CNc2c(N3CCOCC3)c(=O)c2=O)CC1", "note": "(centres undefined)", "Potency": "inactive"}
{"smiles": "CCCN(CC(=O)Nc1ccc(F)c(F)c1F)C(=O)c1ccc2c(c1)NC(=O)CS2", "Potency": "inconclusive: 18.3 µM [inhibitor, single point]"}
{"smiles": "CCCCC(=O)Nc1nnc(CCc2ccccc2)s1", "Potency": "inactive"}
{"smiles": "COc1ccc2oc(C(=O)Nc3cccc(S(=O)(=O)N4CCOCC4)c3)c(C)c2c1", "Potency": "inconclusive: 14.6 µM [inhibitor, partial curve]"}
{"smiles": "O=C(N/N=C/C=C/c1ccco1)c1cccs1", "Potency": "inconclusive: 29.1 µM [activator, single point]"}
{"smiles": "CC1CCCN(c2nc3ccccc3nc2C(C#N)S(=O)(=O)c2cccs2)C1", "note": "(centres undefined)", "Potency": "inconclusive: 23.1 µM [inhibitor, partial curve, poor fit]"}
{"smiles": "Cc1cccc(CN(CC(=O)N/N=C/c2ccco2)S(=O)(=O)c2ccc(Cl)cc2)c1", "Potency": "inactive"}
{"smiles": "Brc1ccsc1-c1csc(-c2ccncc2)n1", "Potency": "inconclusive: 16.4 µM [activator, partial curve]"}
{"smiles": "CCCn1c(SCC(=O)Nc2cccc(C)n2)nc2c1c(=O)n(C)c(=O)n2C", "Potency": "inconclusive: 20.6 µM [inhibitor, single point]"}
{"smiles": "CC(=O)Nc1cccc(C(=O)Nc2nc(C)cs2)c1", "Potency": "inconclusive: 16.4 µM [activator, partial curve, poor fit]"}
{"smiles": "CCc1ccc(-c2cc(C(=O)NCCCn3ccnc3)c3ccccc3n2)s1", "Potency": "inconclusive: 2.31 µM [activator, partial curve, poor fit]"}
{"smiles": "Cc1cccc(NC(=O)NCc2ccc3[nH]c(C)cc3c2)c1", "Potency": "inconclusive: 29.1 µM [activator, single point]"}
{"smiles": "CCc1ccc2[nH]c(=O)c(CN(Cc3ccccc3OC)C(=O)Nc3ccccc3OC)cc2c1", "Potency": "active: 23.1 µM"}
{"smiles": "CC1CCC2C(=O)N(c3ccc(Cc4ccncc4)cc3)C(=O)C2C1", "note": "(centres undefined)", "Potency": "inconclusive: 2.59 µM [inhibitor, partial curve, poor fit]"}
{"smiles": "Cc1onc(-c2ccccc2)c1C(=O)NC(=S)NNC(=O)c1ccccc1O", "Potency": "inactive"}
{"smiles": "CCC(=O)NC(=S)Nc1ccc(NC(=S)NC(=O)c2ccccc2)cc1", "Potency": "inactive"}
{"smiles": "Cc1nc(NC(=O)c2ccccc2)sc1-c1csc(Nc2ccc(F)cc2)n1", "Potency": "inconclusive: 29.1 µM [inhibitor, single point]"}
{"smiles": "COc1ccc(S(=O)(=O)NC(C)C(=O)Nc2ccc3c(c2)OCCO3)cc1OC", "note": "(centres undefined)", "Potency": "inactive"}
{"smiles": "Cn1nc(C(F)(F)F)c2cc(C(=O)Nc3ccc(F)cc3)sc21", "Potency": "inconclusive: 16.4 µM [inhibitor, single point]"}
{"smiles": "O=C(CN1CCN(S(=O)(=O)N2CCCCCC2)CC1)Nc1ccc(Br)cc1", "Potency": "inconclusive: 29.1 µM [inhibitor, single point]"}
{"smiles": "Cc1cc(-c2cccnc2)c(C#N)c(SCc2cccc(F)c2)n1", "Potency": "inconclusive: 29.1 µM [inhibitor, partial curve, poor fit]"}
{"smiles": "O=C(NCCCN1CCOCC1)c1ccc2c(=O)n(CCc3ccccc3)c(=O)[nH]c2c1", "Potency": "inconclusive: 29.1 µM [inhibitor, partial curve]"}
{"smiles": "Cc1ccccc1Oc1nc(-c2ccccn2)nc2ccccc12", "Potency": "inconclusive: 16.4 µM [inhibitor, single point]"}
{"smiles": "NNC(=O)c1nc(-c2cccc(-n3cccc3)c2)no1", "Potency": "inconclusive: 25.9 µM [inhibitor, single point]"}
{"smiles": "CCOC(=O)c1ccc(NC(=O)c2cc(C)nc3ccccc23)cc1", "Potency": "inactive"}
{"smiles": "Cn1c(SCc2ccc(C#N)cc2Cl)nc2ccccc21", "Potency": "inconclusive: 8.2 µM [activator, partial curve]"}
{"smiles": "CCOC(=O)CSc1ccc(-c2nc3cc(C)c(C)cc3[nH]2)cn1", "Potency": "inconclusive: 11.6 µM [activator, partial curve]"}
{"smiles": "C[C@@]12C(=O)N(Cc3ccc(Cl)cc3)CC(=O)N1[C@H]1c3ccccc3OC[C@@H]1[C@@H]2c1ccccc1", "Potency": "inconclusive: 29.1 µM [inhibitor, single point]"}
{"smiles": "CC1CCc2cc(F)ccc2N1C(=O)C12CCC(C)(C(=O)O1)C2(C)C", "note": "(centres undefined)", "Potency": "inconclusive: 20.6 µM [inhibitor, single point]"}
{"smiles": "COC(=O)c1cc(S(=O)(=O)NCc2ccc(Br)cc2)c[nH]1", "Potency": "inactive"}
{"smiles": "N#C/C(=N\\Nc1ccc(S(=O)(=O)N2CCOCC2)cc1)C(N)=S", "Potency": "inconclusive: 20.6 µM [inhibitor, single point]"}
{"smiles": "Cn1c(SCC(=O)Nc2ccccc2)nnc1-c1ccc(NC(=O)CCc2ccccc2)cc1", "Potency": "inconclusive: 4.11 µM [inhibitor, partial curve, poor fit]"}
{"smiles": "C=CCc1ccc(OCc2ccc(C(=O)OC)o2)c(OC)c1", "Potency": "inconclusive: 18.4 µM [activator, partial curve]"}
{"smiles": "O=C(NC1CCCCCC1)c1ccc(CS(=O)Cc2cccc(Cl)c2)o1", "note": "(centres undefined)", "Potency": "inactive"}
{"smiles": "Cc1cccc2c1cnn2C(=O)Nc1ccccc1Cl", "Potency": "inconclusive: 20.6 µM [activator, partial curve]"}
{"smiles": "O=C(NC(=S)NC1CCCc2ccccc21)c1ccc(F)cc1", "note": "(centres undefined)", "Potency": "inconclusive: 6.51 µM [inhibitor, single point]"}
{"smiles": "CC(C)OCCCNC(=O)C(=O)N/N=C/c1ccc(OCc2ccccc2)cc1", "Potency": "inactive"}
{"smiles": "COc1cccc(CC2(CO)CCCN(Cc3c(C)cc(C)cc3-n3cccn3)C2)c1", "note": "(centres undefined)", "Potency": "inactive"}
{"smiles": "COc1ccc(-c2cccc(C(=O)Nc3ccc(OC)c(OC)c3)c2)cc1", "Potency": "inactive"}
{"smiles": "O=C(CC(=O)c1ccccc1)Nc1cc(C(F)(F)F)ccc1Cl", "Potency": "inactive"}
{"smiles": "CCOc1ccccc1C(=O)N[C@H](C(=O)OCc1cc([N+](=O)[O-])cc2c1OCOC2)C(C)C", "Potency": "active: 20.6 µM"}
{"smiles": "O=C(CCc1ccccc1)NC(NC(=S)Nc1cccc(Cl)c1)C(Cl)(Cl)Cl", "note": "(centres undefined)", "Potency": "inconclusive: 23.1 µM [inhibitor, single point]"}
{"smiles": "O=C(COc1ccccc1)NNC(=S)NC(=O)c1ccccc1", "Potency": "inconclusive: 23.1 µM [inhibitor, partial curve, poor fit]"}
{"smiles": "COc1ccc(OC)c(NC(=O)C2CCCCC2)c1", "Potency": "inactive"}
{"smiles": "COc1ccc(C2=NN(C(=O)CSc3nc4ncc(Cl)cc4[nH]3)C(c3ccco3)C2)cc1", "note": "(centres undefined)", "Potency": "inconclusive: 23.1 µM [inhibitor, partial curve, poor fit]"}
{"smiles": "CCOC(=O)C1=C(COC(=O)c2ccc(C)c(S(=O)(=O)N3CCOCC3)c2)NC(=O)NC1C", "note": "(centres undefined)", "Potency": "inactive"}
{"smiles": "Cc1ccc(C(C)C)cc1S(=O)(=O)NCc1cccnc1", "Potency": "inconclusive: 20.6 µM [inhibitor, single point]"}
{"smiles": "O=c1ccc2cc(S(=O)(=O)N3CCN(c4ccccc4)CC3)ccc2[nH]1", "Potency": "inactive"}
{"smiles": "Cn1nc2c3ccccc3n(Cc3ccc(F)cc3)c2nc1=S", "Potency": "inactive"}
{"smiles": "N#CCOC(=O)c1c2c(nc3ccccc13)CCC2", "Potency": "inconclusive: 0.0046 µM [inhibitor, full curve]"}
{"smiles": "COc1ccc(N2CCN(C(=O)c3oc4c(c3C)C(=O)CCC4)CC2)cc1", "Potency": "inconclusive: 23.1 µM [inhibitor, partial curve, poor fit]"}
{"smiles": "O=C(Nc1ncc(Cc2ccccc2)s1)C1CCCO1", "note": "(centres undefined)", "Potency": "inconclusive: 1.84 µM [activator, full curve]"}
{"smiles": "Clc1ccccc1/C=C/c1nc(-c2ccccn2)no1", "Potency": "inconclusive: 0.231 µM [activator, full curve]"}
{"smiles": "COc1ccc(CNC(=O)CSc2nccn(-c3ccc(F)c(F)c3)c2=O)cc1", "Potency": "inconclusive: 23.1 µM [inhibitor, single point]"}
{"smiles": "COC(=O)c1ccccc1NC(=S)NC(=O)C1CCCCC1", "Potency": "inactive"}
{"smiles": "Cc1ccc2nc(-c3ccncc3)[nH]c2c1", "Potency": "inconclusive: 4.61 µM [activator, full curve]"}
{"smiles": "COc1ccc(-n2nnnc2SCC(=O)Nc2ccc(OC)cc2OC)cc1", "Potency": "inconclusive: 11.6 µM [inhibitor, partial curve]"}
{"smiles": "O=C(Nc1ccc(N2CCOCC2)c(Cl)c1)c1ccc(Cl)cc1", "Potency": "inconclusive: 18.3 µM [inhibitor, single point]"}
{"smiles": "O=C(CN1CCN(c2ccccc2O)CC1)Nc1cccnc1Cl", "Potency": "inconclusive: 20.6 µM [inhibitor, partial curve, poor fit]"}
{"smiles": "COc1ccc(Cl)cc1C(=O)O/N=C(\\N)c1ccccn1", "Potency": "inconclusive: 18.3 µM [activator, partial curve]"}
{"smiles": "COC(=O)c1ccc(COc2ccc(C)c(C)c2)o1", "Potency": "inconclusive: 9.2 µM [activator, partial curve]"}
